Source: US20050005314A1
No constants are given. Whether binding was seen depends on the method and setting. For part of these data: Binding seen in cells or lysates may run through a third protein. Some binding calls cover weakened binding; strength is not graded here. Each block holds one molecule with its values, some of them ahead of it.

Protein sequences, listed by entry. Tags and fused reporters are not part of them. Lines headed by an entry give the natural chain unless they say otherwise; changes in a name come on top.
UniProt P06748: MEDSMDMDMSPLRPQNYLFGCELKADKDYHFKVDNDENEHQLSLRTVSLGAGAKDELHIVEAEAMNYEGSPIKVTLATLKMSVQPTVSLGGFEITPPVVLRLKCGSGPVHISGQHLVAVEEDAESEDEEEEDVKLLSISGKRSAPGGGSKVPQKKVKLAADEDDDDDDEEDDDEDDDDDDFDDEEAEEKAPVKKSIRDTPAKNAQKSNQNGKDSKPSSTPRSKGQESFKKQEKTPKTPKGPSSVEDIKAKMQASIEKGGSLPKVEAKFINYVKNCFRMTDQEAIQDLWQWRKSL
UniProt Q9UM73: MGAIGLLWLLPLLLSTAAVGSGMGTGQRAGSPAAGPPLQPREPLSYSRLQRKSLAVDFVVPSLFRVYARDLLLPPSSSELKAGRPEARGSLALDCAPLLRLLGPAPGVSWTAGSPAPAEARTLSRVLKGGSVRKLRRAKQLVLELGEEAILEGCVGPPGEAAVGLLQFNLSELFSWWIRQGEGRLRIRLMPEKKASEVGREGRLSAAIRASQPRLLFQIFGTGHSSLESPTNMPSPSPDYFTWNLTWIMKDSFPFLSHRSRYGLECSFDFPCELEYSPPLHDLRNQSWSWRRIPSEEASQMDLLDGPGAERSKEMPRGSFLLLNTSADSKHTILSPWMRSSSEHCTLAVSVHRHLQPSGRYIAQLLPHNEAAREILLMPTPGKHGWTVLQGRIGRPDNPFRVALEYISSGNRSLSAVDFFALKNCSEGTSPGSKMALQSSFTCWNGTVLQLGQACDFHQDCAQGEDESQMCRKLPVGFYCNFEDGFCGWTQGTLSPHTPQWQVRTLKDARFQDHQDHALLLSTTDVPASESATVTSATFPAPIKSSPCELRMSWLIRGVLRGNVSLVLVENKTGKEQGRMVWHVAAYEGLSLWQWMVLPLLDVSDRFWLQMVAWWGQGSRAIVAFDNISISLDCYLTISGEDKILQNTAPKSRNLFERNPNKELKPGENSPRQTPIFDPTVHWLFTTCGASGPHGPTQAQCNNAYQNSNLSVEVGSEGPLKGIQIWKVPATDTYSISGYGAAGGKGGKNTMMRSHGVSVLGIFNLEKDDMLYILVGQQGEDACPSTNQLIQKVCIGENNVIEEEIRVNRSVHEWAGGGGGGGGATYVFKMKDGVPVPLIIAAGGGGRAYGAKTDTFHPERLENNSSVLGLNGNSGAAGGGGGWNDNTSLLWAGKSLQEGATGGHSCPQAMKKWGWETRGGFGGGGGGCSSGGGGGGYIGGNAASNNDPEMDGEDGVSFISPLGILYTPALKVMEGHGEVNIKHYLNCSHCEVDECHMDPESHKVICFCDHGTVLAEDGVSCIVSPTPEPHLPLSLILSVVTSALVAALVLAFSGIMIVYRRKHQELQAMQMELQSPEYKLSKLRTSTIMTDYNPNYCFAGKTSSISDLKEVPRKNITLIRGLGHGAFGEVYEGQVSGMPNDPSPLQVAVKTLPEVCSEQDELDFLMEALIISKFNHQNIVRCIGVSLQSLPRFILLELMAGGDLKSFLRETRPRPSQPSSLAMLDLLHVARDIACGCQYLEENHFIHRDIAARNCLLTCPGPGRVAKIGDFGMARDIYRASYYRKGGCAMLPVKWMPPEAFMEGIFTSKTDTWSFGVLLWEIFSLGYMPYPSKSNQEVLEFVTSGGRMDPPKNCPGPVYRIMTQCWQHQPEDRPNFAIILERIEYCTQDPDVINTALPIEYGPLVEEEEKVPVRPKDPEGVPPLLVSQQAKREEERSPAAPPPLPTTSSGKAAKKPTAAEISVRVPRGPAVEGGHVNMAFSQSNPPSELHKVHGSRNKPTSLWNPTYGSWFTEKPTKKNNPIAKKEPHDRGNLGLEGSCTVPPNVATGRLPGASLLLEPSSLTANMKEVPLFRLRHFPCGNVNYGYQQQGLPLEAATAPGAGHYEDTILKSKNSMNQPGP
UniProt P35569: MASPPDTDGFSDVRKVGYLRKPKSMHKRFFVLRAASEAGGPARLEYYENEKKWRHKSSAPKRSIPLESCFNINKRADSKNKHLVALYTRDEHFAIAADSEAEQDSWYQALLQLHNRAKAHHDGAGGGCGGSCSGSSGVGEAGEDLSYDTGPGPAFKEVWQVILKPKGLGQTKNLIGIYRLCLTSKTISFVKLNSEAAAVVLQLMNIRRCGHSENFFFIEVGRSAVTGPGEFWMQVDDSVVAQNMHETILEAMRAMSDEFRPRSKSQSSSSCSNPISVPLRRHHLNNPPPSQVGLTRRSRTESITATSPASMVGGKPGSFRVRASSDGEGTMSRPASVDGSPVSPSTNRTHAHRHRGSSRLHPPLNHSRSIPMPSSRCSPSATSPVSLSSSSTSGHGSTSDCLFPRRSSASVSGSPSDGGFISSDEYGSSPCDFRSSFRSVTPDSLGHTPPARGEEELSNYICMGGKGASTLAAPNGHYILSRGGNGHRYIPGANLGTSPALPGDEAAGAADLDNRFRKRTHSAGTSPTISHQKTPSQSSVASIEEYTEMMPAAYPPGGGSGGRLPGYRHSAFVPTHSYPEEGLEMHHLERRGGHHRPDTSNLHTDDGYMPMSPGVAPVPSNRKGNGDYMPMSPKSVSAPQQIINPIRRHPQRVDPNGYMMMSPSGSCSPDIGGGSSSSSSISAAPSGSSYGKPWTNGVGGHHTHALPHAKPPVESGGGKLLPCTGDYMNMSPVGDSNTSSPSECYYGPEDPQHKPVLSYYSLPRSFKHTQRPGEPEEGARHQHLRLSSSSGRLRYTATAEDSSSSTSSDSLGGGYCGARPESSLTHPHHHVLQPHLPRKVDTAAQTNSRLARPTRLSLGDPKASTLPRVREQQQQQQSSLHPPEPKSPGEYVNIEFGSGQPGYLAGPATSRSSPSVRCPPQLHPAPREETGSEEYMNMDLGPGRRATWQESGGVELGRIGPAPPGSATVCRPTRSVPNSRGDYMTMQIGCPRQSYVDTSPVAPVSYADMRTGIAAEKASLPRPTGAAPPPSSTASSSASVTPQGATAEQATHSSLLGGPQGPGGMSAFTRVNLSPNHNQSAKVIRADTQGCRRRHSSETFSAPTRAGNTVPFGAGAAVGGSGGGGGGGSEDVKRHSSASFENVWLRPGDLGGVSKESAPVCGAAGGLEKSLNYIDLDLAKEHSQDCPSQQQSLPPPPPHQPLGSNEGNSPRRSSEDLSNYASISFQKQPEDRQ
UniProt Q60631: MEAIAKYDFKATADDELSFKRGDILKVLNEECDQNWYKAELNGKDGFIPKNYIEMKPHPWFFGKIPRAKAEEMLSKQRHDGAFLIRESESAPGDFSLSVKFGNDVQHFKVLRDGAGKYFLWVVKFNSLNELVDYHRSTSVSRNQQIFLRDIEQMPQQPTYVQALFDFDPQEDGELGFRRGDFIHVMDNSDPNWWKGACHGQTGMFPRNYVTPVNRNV

Tests used:
[1] = molecular target: T1, NPM-ALK fusion protein (human NPM-ALK chimera expressed from the full-length cDNA in transgenic mouse T cells) (human) (UniProt P06748+Q9UM73); assay: co-immunoprecipitation (summary of Example 1)
[2] = molecular target: T1, NPM-ALK fusion protein (human NPM-ALK chimera expressed from the full-length cDNA in transgenic mouse T cells) (human); assay: immunoprecipitation with anti-ALK, Western blot
[3] = molecular target: T1, NPM-ALK fusion protein (human NPM-ALK chimera expressed from the full-length cDNA in transgenic mouse T cells) (human); assay: co-immunoprecipitation and Western blot, lysates of transgenic mouse cells
[4] = molecular target: T1, NPM-ALK fusion protein (human NPM-ALK chimera expressed from the full-length cDNA in transgenic mouse T cells) (human); assay: immunoprecipitation with anti-ALK or anti-Grb-2, Western blot

binding [1]: binds
binding [2]: binds
binding [3]: binds
Molecule: mouse IRS-1 (from UniProt P35569 1-1233)

binding [1]: binds
binding [3]: binds
binding [4]: binds
Molecule: mouse Grb-2 (from UniProt Q60631 1-217)

binding [1]: binds
binding [2]: binds
binding [3]: binds
B1: mouse Shc (protein, UniProt P98083 1-579, looked up)
chain: MDLLPPKPKYNPLRNESLSSLEEGASGSTPPEELPSPSASSLGPILPPLPGDDSPTTLCSFFPRMSNLKLANPAGGRLGPKGEPGKAAEDGEGSAGAALRDSGLLPLLQDMNKLSGGGGRRTRVEGGQLGGEEWTRHGSFVNKPTRGWLHPNDKVMGPGVSYLVRYMGCVEVLQSMRALDFNTRTQVTREAISLVCEAVPGAKGATRRRKPCSRPLSSILGRSNLKFAGMPITLTVSTSSLNLMAADCKQIIANHHMQSISFASGGDPDTAEYVAYVAKDPVNQRACHILECPEGLAQDVISTIGQAFELRFKQYLRNPPKLVTPHDRMAGFDGSAWDEEEEEPPDHQYYNDFPGKEPPLGGVVDMRLREGAARPTLPSAQMSSHLGATLPIGQHAAGDHEVRKQMLPPPPCPGRELFDDPSYVNIQNLDKARQAGGGAGPPNPSLNGSAPRDLFDMKPFEDALRVPPPPQSMSMAEQLQGEPWFHGKLSRREAEALLQLNGDFLVRESTTTPGQYVLTGLQSGQPKHLLLVDPEGVVRTKDHRFESVSHLISYHMDNHLPIISAGSELCLQQPVDRKV
